Reference: publication PMC11428291 (ACS Central Science, 2024)

Experiments:
E. coli lysate = experiment: Shotgun proteomic analysis of E. coli lysate samples after cysteine alkylation/alkenylation; conditions: E. coli lysate reduced with DTT, 50 mM reagent, trypsin digestion, LC-MS/MS, 0.3 μg peptides, three biological replicates; 1178 proteins overlapped in both
[1] = general procedure: Fmoc solid-phase peptide synthesis; 2-chlorotrityl chloride resin (0.5 mmol/g); hydrazine-functionalized 2-chlorotrityl resin; conditions: for step yield: late stage modification step; for isolated yield: whole synthesis, scale of the general procedure 0.25 mmol

## C#CN(CCO)S(=O)(=O)C(F)(F)F [2e]
E. coli lysate
  Number of proteins identified only in samples labeled with this reagent: 541 proteins

## NC(=O)CI [IAM, iodoacetamide, reference compound]
E. coli lysate
  Number of proteins identified only in samples labeled with this reagent: 43 proteins

## H C Y I Q N C P L G COOH
[1]
  step yield: 65%

## H D D C D D COOH
[1]
  step yield: 70%

## M Y D W S K P N F H R G A G L A GCONH2
[1]
  step yield: ~ 84% yield

## M Y D W S K P N F H R G C G L A GCONH2
[1]
  isolated yield: ~ 38% yield

## M Y D W S R N F HGACPGKLGCONH2
[1]
  isolated yield: ~30%
